Experimental data as given in PMC8523698, “Preclinical characterization of an intravenous coronavirus 3CL protease inhibitor for the potential treatment of COVID19” (Nature Communications, 2021).
Where “and” joins values, the source holds several entries; their conditions need not be identical. Equal entries are not always repeated. The source gives many values for each of these; only a part stands here.

Tested on: HCoV-229E
Assay: Viral CPE assay in MRC-5 cells (CellTiter Glo)
Format: cell-based
Settings: plus 0.5 uM efflux inhibitor

COc1cccc2[nH]c(C(=O)N[C@@H](CC(C)C)C(=O)N[C@@H](C[C@@H]3CCNC3=O)C(=O)CO)cc12 [PF-00835231-00]
% Well Effect (0.000938825 uM, EC50 run 17-Apr-2020): 2.65% and 6.47% | % Well Effect (0.000949 uM, EC50 run 22-may-2020): 5.07% and -3.54% | % Well Effect (0.00297326 uM, EC50 run 17-Apr-2020): -5.58% and 0.60% | % Well Effect (0.00297326 uM, EC50 run 24-Apr-2020): -11.31% and -11.03% | % Well Effect (0.003002 uM, EC50 run 22-may-2020): 0.48% and 1.64% | % Well Effect (0.00941631 uM, EC50 run 17-Apr-2020): -0.15% and 6.87% | % Well Effect (0.0298215 uM, EC50 run 17-Apr-2020): 17.63% and 12.83% | % Well Effect (0.0298215 uM, EC50 run 24-Apr-2020): -2.34% and -5.65% | % Well Effect (0.0944446 uM, EC50 run 17-Apr-2020): 97.09% and 89.01% | % Well Effect (0.0944446 uM, EC50 run 24-Apr-2020): 26.00% and 31.06% | % Well Effect (0.094893 uM, EC50 run 22-may-2020): 71.50% and 72.43% | % Well Effect (0.299106 uM, EC50 run 17-Apr-2020): 102.72% and 106.40% | % Well Effect (0.299106 uM, EC50 run 24-Apr-2020): 63.03% and 59.11% | % Well Effect (0.300053 uM, EC50 run 22-may-2020): 90.68% and 94.90% | % Well Effect (0.947269 uM, EC50 run 17-Apr-2020): 100.61% and 103.03% | % Well Effect (0.947269 uM, EC50 run 24-Apr-2020): 62.85% and 57.32% | % Well Effect (0.948767 uM, EC50 run 22-may-2020): 91.30% and 94.57% | % Well Effect (3 uM, EC50 run 17-Apr-2020): 99.68% and 104.80% | % Well Effect (3 uM, EC50 run 22-may-2020): 94.06% | % Well Effect (3 uM, EC50 run 24-Apr-2020): 59.78%
